In paper PMC10611586:
No constants are given. Whether binding was seen depends on the method and setting. Binding seen in cells or lysates may run through a third protein. A yes stands for co-enrichment or nearness to the bait. Other partners may have been found. A no says only that the protein was not detected with the bait.

Target: HA–Fubi^C57A-VS (human) (UniProt P62861)
Assay: affinity purification with mass spectrometry; HeLa lysate (1 mg protein) incubated with 5 µg HA-tagged VS probe for 1 h at 37 °C, compared with lysate pretreated with 10 mM IAA; covalent conjugates enriched on anti-HA affinity gel; label-free quantification; only the target purified

“endogenous USP7 (from UniProt Q93009 1-1102) (enzyme)” was tested, and the binding was “no binding”.
